Test results: EP2363410A1

By UniProt entry, the sequences of proteins in these tests, tags left out. Where a name states a change or a piece, a line headed by the entry shows the natural chain unless it says otherwise. Residues count along the entry.
UniProt P15531, residues 2-152: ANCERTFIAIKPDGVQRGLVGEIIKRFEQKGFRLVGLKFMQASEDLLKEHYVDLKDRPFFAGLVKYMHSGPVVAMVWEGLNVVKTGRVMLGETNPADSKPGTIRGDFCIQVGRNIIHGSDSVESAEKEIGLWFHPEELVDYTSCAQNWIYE
UniProt P08758, residues 2-320: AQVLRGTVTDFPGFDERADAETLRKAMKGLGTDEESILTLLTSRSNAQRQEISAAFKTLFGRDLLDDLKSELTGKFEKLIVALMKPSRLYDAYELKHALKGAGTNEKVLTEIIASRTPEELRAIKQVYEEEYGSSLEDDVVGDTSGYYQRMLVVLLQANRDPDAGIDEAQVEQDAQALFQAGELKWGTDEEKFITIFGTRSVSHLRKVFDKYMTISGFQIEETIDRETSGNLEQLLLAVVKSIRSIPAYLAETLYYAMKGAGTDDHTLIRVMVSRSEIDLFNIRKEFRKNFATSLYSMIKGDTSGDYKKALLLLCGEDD
UniProt P62258: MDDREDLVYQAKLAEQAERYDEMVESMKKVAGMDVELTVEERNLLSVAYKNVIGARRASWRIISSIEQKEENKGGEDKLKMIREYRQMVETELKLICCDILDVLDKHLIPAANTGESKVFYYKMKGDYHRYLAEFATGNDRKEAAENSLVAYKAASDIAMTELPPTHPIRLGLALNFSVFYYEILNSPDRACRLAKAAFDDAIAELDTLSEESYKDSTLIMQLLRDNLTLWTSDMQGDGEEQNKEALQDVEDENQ

The substances below were run against T1, Histidine-Tagged Primary Sequence of the MUC1 Growth Factor Receptor (His-var-PSMGFR) (human) (assay: pull-down from T47D lysate on His-var-PSMGFR NTA-Ni beads, gel band, mass spectrometry).
T1 sequence (peptide): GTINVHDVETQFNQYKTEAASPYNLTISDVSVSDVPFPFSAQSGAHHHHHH

binding, binds:
Metastasis Inhibition Factor NM23 (from UniProt P15531 2-152) (ligand), human annexin V with Proline substitution by Thrionine (from UniProt P08758 2-320), 14-3-3 epsilon (from UniProt P62258 1-255) (ligand)

These are yes or no findings as the source states them, for the method shown. In cells and extracts the contact can be indirect. Here binding means that the protein was enriched with, or labelled near, the bait; the list need not be complete. Sequences can lack the tags named with a protein.
